Assay results: the supplement of paper PMC10849652
Some of the results follow.

The chains behind the UniProt entries cited, without tags or fusion partners. Where a name states a change or a piece, a line headed by the entry shows the natural chain unless it says otherwise.
UniProt Q8IYA6: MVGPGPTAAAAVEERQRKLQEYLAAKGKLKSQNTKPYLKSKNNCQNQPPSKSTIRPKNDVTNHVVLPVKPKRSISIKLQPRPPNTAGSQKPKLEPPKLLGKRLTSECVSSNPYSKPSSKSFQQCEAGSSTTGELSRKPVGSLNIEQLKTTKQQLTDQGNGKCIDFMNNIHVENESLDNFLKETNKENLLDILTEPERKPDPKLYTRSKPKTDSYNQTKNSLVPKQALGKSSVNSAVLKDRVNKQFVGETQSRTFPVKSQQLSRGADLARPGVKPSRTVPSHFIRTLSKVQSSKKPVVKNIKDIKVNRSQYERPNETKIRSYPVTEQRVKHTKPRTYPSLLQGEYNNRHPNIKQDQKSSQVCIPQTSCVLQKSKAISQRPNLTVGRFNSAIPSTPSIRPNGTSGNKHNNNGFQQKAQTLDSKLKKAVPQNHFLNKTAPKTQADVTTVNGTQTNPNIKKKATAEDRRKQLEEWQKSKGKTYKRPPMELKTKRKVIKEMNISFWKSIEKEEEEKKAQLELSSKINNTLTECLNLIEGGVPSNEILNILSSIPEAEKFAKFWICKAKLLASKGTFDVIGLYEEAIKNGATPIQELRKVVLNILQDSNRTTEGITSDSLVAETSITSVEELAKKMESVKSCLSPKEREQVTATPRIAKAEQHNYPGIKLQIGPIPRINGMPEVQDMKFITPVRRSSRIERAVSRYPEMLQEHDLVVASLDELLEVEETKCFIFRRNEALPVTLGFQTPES
UniProt Q8IZ52: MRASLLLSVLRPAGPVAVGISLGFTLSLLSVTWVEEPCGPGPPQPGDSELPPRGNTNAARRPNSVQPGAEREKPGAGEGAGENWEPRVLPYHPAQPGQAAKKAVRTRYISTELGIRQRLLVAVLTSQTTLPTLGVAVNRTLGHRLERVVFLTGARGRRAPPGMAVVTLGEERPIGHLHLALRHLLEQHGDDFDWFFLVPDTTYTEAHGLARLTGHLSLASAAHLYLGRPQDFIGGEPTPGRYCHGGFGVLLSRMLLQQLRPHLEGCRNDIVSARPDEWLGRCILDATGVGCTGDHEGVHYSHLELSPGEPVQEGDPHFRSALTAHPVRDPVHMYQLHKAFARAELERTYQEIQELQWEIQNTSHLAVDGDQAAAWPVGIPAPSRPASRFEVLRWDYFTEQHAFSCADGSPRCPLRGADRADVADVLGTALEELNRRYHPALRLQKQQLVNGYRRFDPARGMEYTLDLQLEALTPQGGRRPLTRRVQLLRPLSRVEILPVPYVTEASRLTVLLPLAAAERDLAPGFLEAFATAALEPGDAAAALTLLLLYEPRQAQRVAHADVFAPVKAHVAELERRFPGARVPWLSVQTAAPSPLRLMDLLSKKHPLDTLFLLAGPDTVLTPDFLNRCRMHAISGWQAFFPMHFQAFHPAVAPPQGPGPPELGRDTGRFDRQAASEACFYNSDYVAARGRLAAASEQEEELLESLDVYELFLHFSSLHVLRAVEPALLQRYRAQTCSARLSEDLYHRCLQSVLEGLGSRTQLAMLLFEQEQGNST
UniProt P0CG13, whole entry, looked up: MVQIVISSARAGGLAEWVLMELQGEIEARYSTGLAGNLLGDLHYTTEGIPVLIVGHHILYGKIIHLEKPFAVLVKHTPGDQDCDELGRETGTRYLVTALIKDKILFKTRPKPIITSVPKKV
UniProt Q96AJ1: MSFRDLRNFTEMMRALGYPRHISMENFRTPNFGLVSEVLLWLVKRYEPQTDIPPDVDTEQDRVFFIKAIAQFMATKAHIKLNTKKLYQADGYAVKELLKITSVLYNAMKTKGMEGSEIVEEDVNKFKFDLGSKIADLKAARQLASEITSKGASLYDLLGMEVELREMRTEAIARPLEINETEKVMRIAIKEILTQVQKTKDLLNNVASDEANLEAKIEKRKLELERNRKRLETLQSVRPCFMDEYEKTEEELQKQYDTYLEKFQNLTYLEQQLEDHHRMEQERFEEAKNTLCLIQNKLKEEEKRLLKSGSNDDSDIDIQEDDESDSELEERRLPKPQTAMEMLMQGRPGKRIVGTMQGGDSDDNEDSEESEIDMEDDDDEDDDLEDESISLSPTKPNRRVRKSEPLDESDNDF
UniProt P51790: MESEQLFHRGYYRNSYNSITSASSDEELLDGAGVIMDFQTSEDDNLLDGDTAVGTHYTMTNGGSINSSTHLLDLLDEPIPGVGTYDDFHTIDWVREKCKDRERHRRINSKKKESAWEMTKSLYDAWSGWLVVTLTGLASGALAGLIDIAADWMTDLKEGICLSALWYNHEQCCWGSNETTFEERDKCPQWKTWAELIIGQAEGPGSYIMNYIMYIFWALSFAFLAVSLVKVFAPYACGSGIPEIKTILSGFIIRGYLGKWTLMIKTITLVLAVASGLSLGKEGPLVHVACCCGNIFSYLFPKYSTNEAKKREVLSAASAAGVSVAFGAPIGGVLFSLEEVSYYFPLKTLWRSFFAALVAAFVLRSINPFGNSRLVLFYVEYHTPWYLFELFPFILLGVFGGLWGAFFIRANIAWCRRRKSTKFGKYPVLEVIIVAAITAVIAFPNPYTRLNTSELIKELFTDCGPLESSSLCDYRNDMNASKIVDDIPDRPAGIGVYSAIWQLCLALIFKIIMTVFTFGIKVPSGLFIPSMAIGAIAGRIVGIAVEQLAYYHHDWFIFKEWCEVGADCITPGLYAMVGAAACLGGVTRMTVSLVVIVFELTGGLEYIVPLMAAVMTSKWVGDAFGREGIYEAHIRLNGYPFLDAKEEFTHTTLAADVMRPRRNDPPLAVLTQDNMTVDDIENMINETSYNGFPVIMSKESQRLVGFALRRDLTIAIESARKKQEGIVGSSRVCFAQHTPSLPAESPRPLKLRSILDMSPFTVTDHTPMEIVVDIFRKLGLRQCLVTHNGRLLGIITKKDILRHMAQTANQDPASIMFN
UniProt P51797: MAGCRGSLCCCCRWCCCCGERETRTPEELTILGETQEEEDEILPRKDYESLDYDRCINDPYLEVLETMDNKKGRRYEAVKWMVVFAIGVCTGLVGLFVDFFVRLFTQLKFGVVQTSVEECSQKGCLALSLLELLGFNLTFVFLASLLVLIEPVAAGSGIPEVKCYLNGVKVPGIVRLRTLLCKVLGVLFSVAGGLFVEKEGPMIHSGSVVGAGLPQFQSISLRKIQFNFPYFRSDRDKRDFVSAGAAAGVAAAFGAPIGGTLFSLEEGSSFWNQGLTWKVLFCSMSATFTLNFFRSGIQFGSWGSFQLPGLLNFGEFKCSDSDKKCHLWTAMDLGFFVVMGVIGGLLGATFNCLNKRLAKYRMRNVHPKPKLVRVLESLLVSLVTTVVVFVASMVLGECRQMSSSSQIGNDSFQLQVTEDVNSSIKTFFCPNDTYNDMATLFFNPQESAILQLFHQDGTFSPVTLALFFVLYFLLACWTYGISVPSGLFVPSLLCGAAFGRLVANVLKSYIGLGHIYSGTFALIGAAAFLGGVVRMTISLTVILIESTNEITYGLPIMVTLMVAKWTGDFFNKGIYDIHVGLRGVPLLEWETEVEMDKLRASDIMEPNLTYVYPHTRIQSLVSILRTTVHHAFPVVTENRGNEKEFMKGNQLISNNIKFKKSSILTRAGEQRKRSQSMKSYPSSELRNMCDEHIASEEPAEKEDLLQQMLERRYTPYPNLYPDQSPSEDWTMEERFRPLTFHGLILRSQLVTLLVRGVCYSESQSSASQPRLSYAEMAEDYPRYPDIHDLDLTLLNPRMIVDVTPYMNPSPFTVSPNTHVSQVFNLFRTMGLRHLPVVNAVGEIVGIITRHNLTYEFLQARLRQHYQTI
UniProt Q8TD26: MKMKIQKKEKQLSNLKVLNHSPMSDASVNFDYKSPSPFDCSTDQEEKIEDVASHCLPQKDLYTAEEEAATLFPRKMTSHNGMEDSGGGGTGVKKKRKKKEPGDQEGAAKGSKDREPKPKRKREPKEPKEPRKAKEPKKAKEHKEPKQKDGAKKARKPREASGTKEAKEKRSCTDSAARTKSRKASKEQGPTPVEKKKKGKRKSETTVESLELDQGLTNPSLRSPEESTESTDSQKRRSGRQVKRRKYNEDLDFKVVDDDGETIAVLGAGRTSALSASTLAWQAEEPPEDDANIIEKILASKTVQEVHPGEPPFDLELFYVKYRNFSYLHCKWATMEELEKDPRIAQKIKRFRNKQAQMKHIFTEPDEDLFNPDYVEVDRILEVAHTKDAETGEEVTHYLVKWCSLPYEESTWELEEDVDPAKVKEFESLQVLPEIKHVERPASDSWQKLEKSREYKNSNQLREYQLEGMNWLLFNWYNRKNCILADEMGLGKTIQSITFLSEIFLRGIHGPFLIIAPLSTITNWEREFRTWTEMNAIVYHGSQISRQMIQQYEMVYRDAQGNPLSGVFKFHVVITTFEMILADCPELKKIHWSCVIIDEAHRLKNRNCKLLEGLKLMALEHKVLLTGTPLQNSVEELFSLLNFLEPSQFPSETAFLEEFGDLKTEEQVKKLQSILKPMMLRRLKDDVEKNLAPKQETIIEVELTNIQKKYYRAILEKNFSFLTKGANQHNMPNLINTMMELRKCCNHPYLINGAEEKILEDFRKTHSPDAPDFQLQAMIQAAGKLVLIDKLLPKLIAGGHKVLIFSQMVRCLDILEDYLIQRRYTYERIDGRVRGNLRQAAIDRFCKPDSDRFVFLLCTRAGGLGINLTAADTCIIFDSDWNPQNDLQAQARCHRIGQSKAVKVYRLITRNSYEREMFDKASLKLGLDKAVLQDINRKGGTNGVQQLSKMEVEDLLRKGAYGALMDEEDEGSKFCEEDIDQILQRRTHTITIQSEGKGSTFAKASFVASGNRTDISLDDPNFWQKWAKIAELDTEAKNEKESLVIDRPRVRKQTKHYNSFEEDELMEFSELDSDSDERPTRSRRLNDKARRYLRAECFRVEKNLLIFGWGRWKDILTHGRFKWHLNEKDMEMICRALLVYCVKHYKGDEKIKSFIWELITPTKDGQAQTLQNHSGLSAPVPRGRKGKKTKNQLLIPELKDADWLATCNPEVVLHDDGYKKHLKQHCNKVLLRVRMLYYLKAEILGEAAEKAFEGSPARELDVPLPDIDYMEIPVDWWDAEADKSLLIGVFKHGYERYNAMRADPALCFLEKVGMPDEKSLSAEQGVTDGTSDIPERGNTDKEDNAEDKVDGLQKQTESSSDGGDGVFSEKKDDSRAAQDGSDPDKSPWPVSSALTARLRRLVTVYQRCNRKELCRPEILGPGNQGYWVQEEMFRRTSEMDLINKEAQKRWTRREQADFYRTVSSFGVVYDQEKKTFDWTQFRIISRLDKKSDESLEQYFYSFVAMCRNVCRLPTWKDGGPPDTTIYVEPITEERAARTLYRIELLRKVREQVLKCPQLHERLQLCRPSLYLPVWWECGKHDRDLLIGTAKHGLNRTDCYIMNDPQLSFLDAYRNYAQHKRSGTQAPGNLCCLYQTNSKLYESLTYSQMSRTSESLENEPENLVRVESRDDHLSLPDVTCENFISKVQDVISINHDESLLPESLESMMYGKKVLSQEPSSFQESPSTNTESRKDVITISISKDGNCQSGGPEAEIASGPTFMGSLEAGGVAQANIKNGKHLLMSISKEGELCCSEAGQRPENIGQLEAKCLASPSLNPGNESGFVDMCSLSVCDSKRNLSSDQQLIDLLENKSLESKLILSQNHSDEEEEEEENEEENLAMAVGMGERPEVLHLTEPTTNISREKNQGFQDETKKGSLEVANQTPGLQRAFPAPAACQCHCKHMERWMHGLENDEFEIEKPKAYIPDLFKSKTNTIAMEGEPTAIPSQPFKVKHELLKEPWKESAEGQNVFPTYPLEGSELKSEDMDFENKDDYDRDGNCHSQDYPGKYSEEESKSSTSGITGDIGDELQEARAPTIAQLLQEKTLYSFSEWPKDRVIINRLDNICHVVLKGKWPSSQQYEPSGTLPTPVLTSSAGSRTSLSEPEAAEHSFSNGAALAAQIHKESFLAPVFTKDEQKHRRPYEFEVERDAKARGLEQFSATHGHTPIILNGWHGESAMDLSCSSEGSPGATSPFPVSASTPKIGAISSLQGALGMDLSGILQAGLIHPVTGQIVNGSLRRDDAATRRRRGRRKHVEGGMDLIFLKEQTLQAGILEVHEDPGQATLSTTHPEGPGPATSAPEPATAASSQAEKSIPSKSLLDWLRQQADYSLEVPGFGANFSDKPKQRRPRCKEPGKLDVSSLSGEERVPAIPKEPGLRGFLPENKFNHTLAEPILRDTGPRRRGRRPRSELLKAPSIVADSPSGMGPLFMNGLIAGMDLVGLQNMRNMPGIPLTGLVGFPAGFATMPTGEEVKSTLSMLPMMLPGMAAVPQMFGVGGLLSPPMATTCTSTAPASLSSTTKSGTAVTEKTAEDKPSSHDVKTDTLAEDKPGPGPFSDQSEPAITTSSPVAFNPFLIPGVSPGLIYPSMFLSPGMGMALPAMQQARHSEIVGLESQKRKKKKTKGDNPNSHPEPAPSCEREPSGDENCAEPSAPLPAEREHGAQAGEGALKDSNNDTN

Key:
Assay in all cases: log2 fold change, soluble protein after heating vs DMSO (PISA); higher = thermal stabilisation; K562 lysate, 10 uM; active = over 0.2 and 3.5 SD of the protein, either way, in both replicates (recomputed)
erlotinib = compound: C#Cc1cccc(Nc2ncnc3cc(OCCOC)c(OCCOC)cc23)c1 [erlotinib]
Method in brief: (§1)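 A 30 min treatment with 10 μM compound was applied to crude K562 extract at 1 mg/mL protein in PBS pH 7.4 with 1 mM MgCl2. Heating for 3 min spanned 48°C-58°C, after which aliquots were pooled, adjusted to 0.5% NP-40 at 4°C and spun at 21,000xg for 90 min. TMTpro 16plex LC-MS/MS of the supernatant, with channel sums equalised, gave values recorded as log-two fold change in thermal stability against solvent controls, from duplicates.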

[1] = compound: C/C(=N\NC(=O)C1=CC(=CC=C1)S(=O)(=O)N2CCOCC2)/C3=C(C=CC(=C3)Cl)O
Method in brief: as §1

[2] = compound: C1=CC2=C(C=CC(=C2)/C=C\3/C(=O)NC(=NCC4=CC=CS4)S3)N=C1
Method in brief: as §1

[3] = compound: C1=CC2=NC=CN=C2C=C1/C=C/3\C(=O)NC(=O)S3
Method in brief: as §1

[4] = compound: C1=CC=C(C=C1)C2=NC(=C(N2)C3=CC=NC=C3)C4=CC(=C(C=C4)Cl)O
Method in brief: as §1

[5] = compound: C1=CC=C2C(=C1)C3=NNC4=CC=CC(=C43)C2=O
Method in brief: as §1

[6] = compound: C1CCN(C1)C(=O)NC2=CC=CC(=C2)NC3=NC=C(C(=N3)NCCC4=CN=CN4)Br
Method in brief: as §1

[7] = compound: C1CN(CCC1(CC2=CC=C(C=C2)Cl)N)C3=NC=NC4=C3C=CN4
Method in brief: as §1

IRAK-1-4 Inhibitor I = compound: C1COCCN1CCN2C3=CC=CC=C3N=C2NC(=O)C4=CC(=CC=C4)[N+](=O)[O-] [IRAK-1-4 Inhibitor I]
Method in brief: as §1

ibrutinib = compound: C=CC(=O)N1CCC[C@@H](n2nc(-c3ccc(Oc4ccccc4)cc3)c3c(N)ncnc32)C1 [ibrutinib]
Method in brief: as §1

[8] = compound: CC(=O)c1cnc2ccc(-c3cc(Cl)c(O)c(Cl)c3)nc2c1N[C@H]1CC[C@H](CN(C)C)CC1
Method in brief: as §1

ralimetinib = compound: CC(C)(C)Cn1c(N)nc2ccc(-c3[nH]c(C(C)(C)C)nc3-c3ccc(F)cc3)nc21 [ralimetinib]
Method in brief: as §1

[9] = compound: CC(C)(O)CC(=O)NCCn1ccc2ncnc(Nc3ccc(Oc4cccc(C(F)(F)F)c4)c(Cl)c3)c21
Method in brief: as §1

[10] = compound: CC(C)C1=C2N=C(C=C(N2N=C1)NCC3=CC=CC=C3)NCCCCCCN
Method in brief: as §1

[11] = compound: CC1=C(C(CC(=O)N1)C2=CC=C(C=C2)C(F)(F)F)C(=O)NC3=C(C=C4C(=C3)C=NN4)F
Method in brief: as §1

[12] = compound: CC1=C(C2=C(C=C1)C(=O)C3=CC=CC=C3N2CCCN)C
Method in brief: as §1

[13] = compound: CC1=C(C=C(C=C1)NC(=O)C2=CC(=CC=C2)C(C)(C)C#N)NC3=CC4=C(C=C3)N=CN(C4=O)C
Method in brief: as §1

[14] = compound: CC1=C(C=C(C=C1)NC(=O)C2=CC(=CC=C2)N(C)C)NC(=O)C3=CC=C(C=C3)O
Method in brief: as §1

[15] = compound: CC1=CC=C(C=C1)SC2=C3C=C(SC3=CN=C2)C(=O)N
Method in brief: as §1

[16] = compound: C1=CC(=CC=C1C2=NC3=C(N2)C=C(C=C3)C(=O)N)OC4=CC=C(C=C4)Cl
Method in brief: as §1

Measured: log2 fold change

CHEK2 (UniProt O96017)
inactive: erlotinib -0.042 | [1] -0.006 | [2] 0.05 | [3] 0.053 | [4] 0.018 | [5] 0.148 | [6] 0.11 | [7] -0.035 | IRAK-1-4 Inhibitor I -0.031 | ibrutinib 0.04 | [8] -0.043 | ralimetinib -0.011 | [9] 0.081 | [10] 0.211 | [11] 0.013 | [12] -0.002 | [13] -0.041 | [14] 0.073 | [15] 0.013

CKAP2L (UniProt Q8IYA6)
inactive: erlotinib -0.109 | [1] -0.022 | [16] -0.002 | [2] 0.077 | [4] -0.088 | [5] -0.097 | [6] 0.401 | [7] -0.078 | IRAK-1-4 Inhibitor I 0.117 | ralimetinib -0.032 | [9] -0.052 | [10] -0.336 | [11] 0.003 | [12] 0 | [13] 0.089 | [14] -0.173

CLK3 (UniProt P49761)
inactive: erlotinib 0.055 | [1] -0.198 | [16] -0.084 | [2] 0.02 | [5] -0.032 | [6] -0.059 | [7] 0.088 | [8] -0.008 | [10] -0.01 | [12] -0.012 | [13] -0.018 | [15] 0.081

CHPF (UniProt Q8IZ52)
inactive: erlotinib 0.028 | [16] -0.063 | [3] 0.084 | [4] -0.13 | [6] -0.018 | [7] 0.104 | IRAK-1-4 Inhibitor I -0.008 | ibrutinib -0.047 | ralimetinib 0.07 | [9] -0.578 | [10] 0.022 | [12] -0.001 | [13] -0.051 | [14] 0.002

CHTF8 (UniProt P0CG13)
inactive: erlotinib -0.005 | [16] -0.107 | [3] -0.068 | [4] -0.01 | [6] -0.044 | [7] -0.022 | IRAK-1-4 Inhibitor I -0.044 | ibrutinib -0.06 | [8] -0.149 | ralimetinib 0.127 | [9] -0.087 | [10] -0.054 | [11] 0.045 | [12] 0.068 | [13] -0.01 | [14] 0.061 | [15] 0.096

CLIP4 (UniProt Q8N3C7)
inactive: erlotinib -0.038 | [1] -0.026 | [16] -0.108 | [2] 0.029 | [3] -0.006 | [4] 0.04 | [5] 0.031 | [6] -0.011 | [7] 0.052 | IRAK-1-4 Inhibitor I -0.022 | [8] -0.045 | ralimetinib 0.049 | [9] -0.059 | [10] 0.005 | [11] 0.018 | [13] 0.012 | [14] -0.064 | [15] -0.014

CMTM6 (UniProt Q9NX76)
inactive: erlotinib 0.067 | [16] 0.018 | [3] -0.161 | [4] 0.036 | [6] -0.045 | [7] -0.065 | IRAK-1-4 Inhibitor I -0.062 | ibrutinib 0.043 | [8] 0.055 | ralimetinib -0.002 | [9] -0.028 | [10] -0.048 | [11] 0.009 | [12] 0.012 | [13] -0.043 | [14] -0.026 | [15] 0.086

CLEC16A isoform 2 (UniProt Q2KHT3)
inactive: erlotinib 0.067 | [16] -0.054 | [3] -0.09 | [4] -0.012 | IRAK-1-4 Inhibitor I -0.058 | [8] -0.036 | ralimetinib 0 | [9] 0.048 | [10] 0.073 | [11] -0.289 | [12] 0.039 | [13] -0.015 | [14] -0.179 | [15] 0.066

CLUAP1 (UniProt Q96AJ1)
inactive: erlotinib 0.025 | [1] 0.011 | [16] 0.061 | [2] 0.201 | [4] 0.039 | [5] -0.291 | [6] 0.139 | [7] 0.119 | IRAK-1-4 Inhibitor I -0.005 | [8] 0.059 | ralimetinib -0.008 | [9] -0.12 | [10] -0.124 | [12] -0.028 | [13] 0.152 | [14] -0.004 | [15] -0.137

Looked up one by one from above, 2 records:
CLIP4 (UniProt Q8N3C7)
inactive: erlotinib -0.038 | [1] -0.026 | [16] -0.108 | [2] 0.029 | [3] -0.006 | [4] 0.04 | [5] 0.031 | [6] -0.011 | [7] 0.052 | IRAK-1-4 Inhibitor I -0.022 | [8] -0.045 | ralimetinib 0.049 | [9] -0.059 | [10] 0.005 | [11] 0.018 | [13] 0.012 | [14] -0.064 | [15] -0.014

CLEC16A isoform 2 (UniProt Q2KHT3)
inactive: erlotinib 0.067 | [16] -0.054 | [3] -0.09 | [4] -0.012 | IRAK-1-4 Inhibitor I -0.058 | [8] -0.036 | ralimetinib 0 | [9] 0.048 | [10] 0.073 | [11] -0.289 | [12] 0.039 | [13] -0.015 | [14] -0.179 | [15] 0.066

The listing continues.

CNBP (UniProt P62633)
inactive: erlotinib 0.05 | [16] -0.164 | [3] -0.011 | ibrutinib 0.073 | [8] 0.16 | [10] -0.51 | [15] 0.049

CHD9 (UniProt Q3L8U1)
inactive: erlotinib -0.046 | [1] 0.169 | [16] -0.167 | [2] 0.191 | [4] 0.043 | [5] -0.059 | IRAK-1-4 Inhibitor I 0.016 | ralimetinib -0.117 | [9] -0.147 | [10] -0.074 | [11] 0.212 | [12] 0.038 | [13] -0.031 | [14] -0.023

CLCN3 (UniProt P51790)
inactive: erlotinib -0.047 | [1] 0.043 | [16] -0.067 | [2] 0.06 | [3] 0.016 | [4] -0.02 | [5] 0.084 | [6] -0.043 | [7] -0.117 | IRAK-1-4 Inhibitor I 0.083 | [8] 0.038 | ralimetinib 0.038 | [9] 0.05 | [10] -0.089 | [11] -0.03 | [12] 0.024 | [13] -0.155 | [14] -0.017 | [15] 0.079

CLCN6 isoform 5 (UniProt P51797)
inactive: erlotinib -0.031 | [1] -0.008 | [16] 0.053 | [2] -0.073 | [3] -0.015 | [4] -0.157 | [5] -0.032 | [6] 0.009 | [7] 0.086 | IRAK-1-4 Inhibitor I 0.087 | [8] 0.035 | ralimetinib 0.058 | [9] -0.095 | [10] 0.021 | [12] -0.015 | [13] -0.041 | [14] -0.088 | [15] -0.034

CHTF18 (UniProt Q8WVB6)
inactive: erlotinib -0.031 | [16] -0.059 | [4] 0.038 | [6] 0.147 | [7] -0.17 | IRAK-1-4 Inhibitor I -0.004 | [8] 0.088 | ralimetinib 0.013 | [9] 0.085 | [10] -0.042 | [11] 0.054 | [12] -0.078 | [13] -0.017 | [14] 0.079 | [15] -0.108

CHD2 (UniProt O14647)
inactive: [1] 0.003 | [2] 0.309 | [3] 0.019 | [4] 0.089 | [5] -0.031 | [6] -0.092 | [7] 0.04 | IRAK-1-4 Inhibitor I -0.034 | ibrutinib -0.104 | [8] -0.153 | ralimetinib 0.04 | [9] -0.022 | [11] -0.012 | [12] -0.094 | [13] 0.026 | [14] 0.081 | [15] -0.086

CMTR2 (UniProt Q8IYT2)
inactive: [4] 0.042 | IRAK-1-4 Inhibitor I -0.129 | [8] 0.301 | ralimetinib -0.037 | [9] -0.001 | [11] -0.037 | [14] -0.007 | [15] -0.608

CHD6 (UniProt Q8TD26)
inactive: [1] -0.3 | [2] -0.097 | [3] -0.011 | [4] -0.238 | [5] -0.165 | [6] -0.129 | [7] -0.044 | IRAK-1-4 Inhibitor I -0.002 | ibrutinib 0.196 | ralimetinib 0.094 | [9] 0.017 | [11] 0.096 | [12] -0.083 | [13] 0.031 | [14] 0.115
